Measurements: paper doi:10.1101/2020.07.12.199372
These are yes or no findings as the source states them, for the method shown. Binding seen in cells or lysates may run through a third protein. Some results given as binding are weak or reduced against the parent protein; the word gives no strength.

Protein sequences, listed by entry. Tags and fused reporters are not part of them.
UniProt P30153: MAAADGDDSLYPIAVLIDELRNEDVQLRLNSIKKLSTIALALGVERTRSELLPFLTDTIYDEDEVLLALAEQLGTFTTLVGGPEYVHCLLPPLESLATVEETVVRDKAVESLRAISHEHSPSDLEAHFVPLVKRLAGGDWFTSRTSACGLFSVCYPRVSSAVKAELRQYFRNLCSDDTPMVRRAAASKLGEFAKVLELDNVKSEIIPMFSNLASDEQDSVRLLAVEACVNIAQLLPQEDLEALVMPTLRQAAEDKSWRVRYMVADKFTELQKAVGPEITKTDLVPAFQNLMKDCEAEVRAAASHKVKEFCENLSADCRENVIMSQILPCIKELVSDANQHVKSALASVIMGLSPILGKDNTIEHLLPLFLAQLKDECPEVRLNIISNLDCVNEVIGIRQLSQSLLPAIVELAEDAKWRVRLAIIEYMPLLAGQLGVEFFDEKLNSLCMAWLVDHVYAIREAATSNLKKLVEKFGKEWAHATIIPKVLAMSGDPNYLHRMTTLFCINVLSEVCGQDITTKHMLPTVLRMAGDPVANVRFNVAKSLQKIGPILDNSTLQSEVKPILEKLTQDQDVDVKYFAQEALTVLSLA
UniProt Q9UL03: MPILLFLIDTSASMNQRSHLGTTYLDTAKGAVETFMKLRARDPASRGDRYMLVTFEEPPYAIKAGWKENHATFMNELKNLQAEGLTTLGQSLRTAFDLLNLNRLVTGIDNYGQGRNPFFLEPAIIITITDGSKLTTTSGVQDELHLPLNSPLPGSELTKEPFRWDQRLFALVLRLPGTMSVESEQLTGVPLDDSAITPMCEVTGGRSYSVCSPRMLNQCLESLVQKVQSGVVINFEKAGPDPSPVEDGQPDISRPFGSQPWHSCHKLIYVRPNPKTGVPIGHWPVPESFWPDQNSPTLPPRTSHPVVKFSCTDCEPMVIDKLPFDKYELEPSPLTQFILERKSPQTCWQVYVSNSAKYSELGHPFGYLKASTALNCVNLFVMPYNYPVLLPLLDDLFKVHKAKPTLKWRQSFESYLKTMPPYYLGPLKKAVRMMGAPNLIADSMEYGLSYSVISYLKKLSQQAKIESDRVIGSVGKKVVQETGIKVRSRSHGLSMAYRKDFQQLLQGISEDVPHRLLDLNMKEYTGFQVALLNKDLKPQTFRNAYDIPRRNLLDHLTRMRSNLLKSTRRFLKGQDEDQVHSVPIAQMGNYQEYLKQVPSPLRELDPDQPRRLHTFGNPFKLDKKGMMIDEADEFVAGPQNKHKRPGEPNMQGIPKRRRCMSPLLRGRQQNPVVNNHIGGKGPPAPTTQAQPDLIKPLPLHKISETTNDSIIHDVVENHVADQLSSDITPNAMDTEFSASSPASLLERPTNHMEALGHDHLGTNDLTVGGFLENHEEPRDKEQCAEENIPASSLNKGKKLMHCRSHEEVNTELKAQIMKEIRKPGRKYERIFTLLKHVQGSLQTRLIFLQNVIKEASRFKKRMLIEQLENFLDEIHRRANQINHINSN

Molecular target: endogenous V5-tagged PPP2R1A (human (endogenous in THP-1)) (UniProt P30153)
Test: co-IP

binding: binds
Substance: Integrator complex subunit INTS6 (from UniProt Q9UL03 1-887)
